From PubChem BioAssay AID504834 (National Center for Advancing Translational Sciences (NCATS), 2011)
About 22,000 (6.9%) of roughly 320,000 compounds were called active. Inconclusive means that the source gave no clear call. Such entries were picked first, then a sample of the others. Calls follow the shape of the dose curve; as a rule, active = well fitted inhibition curve with a large enough effect; inconclusive = small, poorly fitted or top-dose-only effect, or another doubt; inactive = no such curve, though single readings can be large or run the other way. Where the call is inconclusive, the potency comes from a doubtful curve fit. Where a SMILES comes first, the peptide text is derived from it. [ ]: non-standard residue; d: D form. The star is where a group is joined. Hyp = O=C(O)[CH]1C[CH](O)CN1; Cbz = O=C(OCc1ccccc1)*; OBn = c1ccc(CO*)cc1
% is scaled to controls: 0 for no effect and ±100 for the full control effect; potency is read from the fitted curve at half-maximal effect.

Experiment: Primary qHTS for delayed death inhibitors of the malarial parasite plastid, 96 hour incubation
Settings: P. falciparum luciferase reporter growth; series mostly up to 28.7 µM; activity change, negative = inhibition: at the top concentration
Procedure, shortened: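 Readout is luminescence from an integrated firefly luciferase in P. falciparum. Red cells, 2% hematocrit and 0.05% parasitemia final, were cultured with compound through two parasite generations (96 hours) at 37 C, 5% CO2.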
For `CC(NC(=O)CNC(=O)OCc1ccccc1)C(=O)N1CC(O)CC1C(=O)OCc1ccccc1` (stereo not drawn) (Cbz-Gly-Ala-[Hyp]-OBn; configuration not given here), the Potency was inconclusive: 1.65 µM [inhibitor, partial curve]. For `C/C(=N\NC(=O)c1nc2ccccn2c1C)c1ccc2c(c1)OCO2`, the “activity change, negative = inhibition” value was inactive: 60.6%. For `Cc1cccc(NC(=O)CCSc2nncn2C)c1`, the “activity change, negative = inhibition” value was inactive: 5.36%. In the case of `COc1cc(C(=O)Nc2nnc(SCC(=O)NCC3CCCO3)s2)cc(OC)c1OC` (stereo unspecified), the Potency is reported as inconclusive: 9.28 µM [inhibitor, partial curve, poor fit]. In the case of `c1ccc(CSc2nnc(-c3cccs3)o2)cc1`, the Potency is reported as inconclusive: 11.7 µM [inhibitor, partial curve, poor fit]. For `CC(=O)NC(Cc1ccccc1)C(C)=O` (stereo unspecified), the Potency was inconclusive: 13.1 µM [inhibitor, partial curve]. In the case of `COc1ccc(N(CC(=O)Nc2ccc3c(c2)OCO3)S(=O)(=O)c2c(C)nn(C)c2C)cc1`, the Potency is reported as inconclusive: 11.7 µM [inhibitor, single point]. With `C=CCn1c(=O)c(C(=O)NC2CC2)c(O)c2cc(OC)c(OC)cc21` the Potency was active: 11.7 µM. In the case of `Cc1ccc(Cn2c(SCC(=O)Nc3cc(C)on3)nc3ccccc3c2=O)cc1`, the Potency is reported as inconclusive: 18.5 µM [inhibitor, single point]. In the case of `Cc1nn(-c2ccccc2)c(C)c1/C=N/NC(=O)c1cc(-c2cccs2)[nH]n1`, the “activity change, negative = inhibition” value is reported as inactive: -72.7%. For `CC(C)c1onc(C(=O)N2CCN(C(c3ccccc3)c3ccccc3)CC2)c1[N+](=O)[O-]`, the Potency was inconclusive: 14.7 µM [inhibitor, single point]. With `COc1cccc(-n2nc(C(C)=O)c(C#N)c2-c2ccco2)c1` the “activity change, negative = inhibition” value was inactive: 0.365%. With `C=CCN1C(=O)N(/C=C/C)c2cccc3cccc1c23` the Potency was inconclusive: 7.38 µM [inhibitor, partial curve, poor fit]. In the case of `COC(=O)c1ccc(COC(=O)c2cnc(Cl)c(Cl)c2)cc1`, the “activity change, negative = inhibition” value is reported as inactive: 40.3%. With `O=C(NCCN1CCCC(O)C1)c1cc(COc2c(F)cccc2F)on1` (stereo unspecified) the Potency was inconclusive: 18.5 µM [inhibitor, single point]. With `CCn1c(=O)n(CC)c2cc([N+](=O)[O-])c(N3CCNCC3)cc21` the Potency was active: 5.86 µM. With `CC1CCN(S(=O)(=O)c2ccc3c(c2)CCN3C(=O)CCC(=O)O)CC1` the Potency was inconclusive: 18.5 µM [inhibitor, single point]. With `Cc1ccc(S(=O)(=O)NC(C(=O)Oc2ccc3c(C(F)(F)F)cc(=O)oc3c2)c2ccccc2)cc1` (stereo unspecified) the Potency was inconclusive: 4.15 µM [inhibitor, single point]. For `CCC(CO)Oc1cc(NCc2ccccc2Cl)c2ncn(C(C)C)c2c1` (stereo unspecified), the Potency was inconclusive: 1.65 µM [inhibitor, full curve, poor fit]. In the case of `CNS(=O)(=O)c1ccc(NC(=O)c2ccccn2)cc1`, the “activity change, negative = inhibition” value is reported as inactive: 191%. For `CCCSc1n[nH]c(NC(C)=O)n1`, the “activity change, negative = inhibition” value was inactive: 28%. For `CCS(=O)(=O)NCc1ccc2c(c1)cc(C)n2C`, the Potency was active: 6.57 µM. For `Cc1cccc(N2CC(C(=O)Nc3ccc4c(c3)OCO4)CC2=O)c1C` (stereo unspecified), the Potency was inconclusive: 18.5 µM [inhibitor, single point]. In the case of `COc1ccc(C(=O)Nc2ccc(SC(F)F)cc2)cc1`, the “activity change, negative = inhibition” value is reported as inactive: 193%. For `C=CCc1c(C)nc2c(C)cccc2c1SC(=N)N`, the Potency was active: 14.7 µM. With `O=C(Cc1ccc(Cl)cc1)N/N=C/c1cccs1` the Potency was inconclusive: 8.28 µM [inhibitor, partial curve, poor fit]. For `COc1ccc2c(c1)CCc1c(C(=O)Nc3cc(C)n(Cc4ccc(Cl)cc4)n3)noc1-2`, the Potency was inconclusive: 13.1 µM [inhibitor, single point]. In the case of `CCn1c(SCC(=O)Nc2ccc(F)cc2)nnc1C1CC1`, the Potency is reported as inconclusive: 13.1 µM [inhibitor, single point]. For `CN(C)C1(CNC(=O)Nc2ccc(Cl)c(Cl)c2)CCCCC1`, the Potency was inconclusive: 10.4 µM [inhibitor, partial curve, poor fit]. With `CC(=O)c1ccc(N2CCN(C(=O)C3CCCN(S(=O)(=O)c4cnc[nH]4)C3)CC2)cc1` (stereo unspecified) the Potency was active: 5.86 µM. In the case of `OCCC1CN(Cc2ccc3cc(Cl)ccc3n2)CCN1Cc1ccsc1` (stereo unspecified), the Potency is reported as active: 5.22 µM. For `Cc1cc(=O)oc2cc(OCC(O)CN3CCc4ccccc4C3)ccc12` (stereo unspecified), the Potency was inconclusive: 18.5 µM [inhibitor, single point]. In the case of `Cc1cc(C)c(OCCN2C(=O)NC(C)(C)C2=O)c(Cl)c1`, the Potency is reported as inconclusive: 18.5 µM [inhibitor, single point]. For `CC(C)CCn1c(Br)nc2c1c(=O)n(CC(N)=O)c(=O)n2C`, the Potency was inconclusive: 0.0657 µM [inhibitor, partial curve, poor fit]. With `CCc1nc(NCCC(C)C)c2nnn(Cc3ccccc3)c2n1` the Potency was inconclusive: 14.7 µM [inhibitor, partial curve, poor fit]. With `COc1ccc(C(=O)/C=C/Nc2c(C)n(C)n(-c3ccccc3)c2=O)c(OC)c1` the Potency was inconclusive: 14.7 µM [inhibitor, partial curve, poor fit]. With `CCOc1cc(C(=S)N2CCOCC2)ccc1OC(=O)c1ccccc1` the Potency was inconclusive: 18.5 µM [inhibitor, single point]. With `CC1CCC(NC(=O)c2ccc(NC3=NC4CS(=O)(=O)CC4S3)cc2)CC1` (stereo unspecified) the “activity change, negative = inhibition” value was inactive: 0.0609%. In the case of `CCCCCC(=O)Nc1ccc(S(=O)(=O)NC2=NCCCCC2)cc1`, the “activity change, negative = inhibition” value is reported as inactive: -24.3%. In the case of `CC(OC(=O)/C=C/c1ccc(Br)cc1)C(=O)N1CCOCC1` (stereo unspecified), the “activity change, negative = inhibition” value is reported as inactive: 0.352%. For `Oc1ccccc1Oc1ncc(Br)c(Cl)n1`, the Potency was inconclusive: 18.5 µM [inhibitor, single point]. With `Cc1ccc2nc(N3C(=O)C(O)=C(C(=O)c4ccco4)C3c3ccc(C)o3)sc2c1` (stereo unspecified) the Potency was active: 5.22 µM. For `Cc1cccc(NC(=S)NNC(=O)c2ccco2)c1`, the “activity change, negative = inhibition” value was inactive: 21%. With `O=C(NCCCCc1ccccc1)c1ccccc1` the Potency was inconclusive: 9.28 µM [inhibitor, partial curve, poor fit]. With `O=C(COC(=O)CSc1ccc2ccccc2c1Br)NC1CC1` the “activity change, negative = inhibition” value was inactive: 14.2%. For `Cc1ccc(C)c(NC(=O)c2cc(-c3cc(C)ccc3O)n[nH]2)c1`, the Potency was inconclusive: 10.4 µM [inhibitor, single point].
